# From the supplement of paper PMC8728848
# The other results are listed elsewhere or left out.
# B1: MXA PilAct-eGFP (Myxococcus xanthus), Q59589 (protein)
# chain: MRVSRFNPRNRGFTLIELMIVVAIIGILAAIAIPNFIKFQARSKQSEAKTNLKALYTAQKSFFSEKDRYSDFANEIGFAPERGNRYGYRVSAAAGDCEVRNAADLPVPAAGVPCISNDSFRFGANSAIDDPTPVVARFVPQGAAGWNTTLGVQPTIADCPNCNFFAGARGNADNEATFDDWVIAGFEGSGQVGPCSEAGNVASGTPYNTRNDVACDGAAQ
# Columns and labels:
# Assay in all cases: glycan array binding signal (z-score within array); higher = stronger binding
# Conditions in all cases: glycan notation: IUPAC condensed, linker removed
# Fuc(a1-3)GlcNAc = biological target: Fuc(a1-3)GlcNAc
# Summary of the method: (§1)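 Glycan array binding is given as a within-array Z-score, which can be read as non-binding when negative. The arrays, 3228 of them, came from the Consortium for Functional Glycomics database and were retained only where the protein sequence was available. Z-scores were averaged across arrays of the same protein sequence at different concentrations or buffers and across linkers.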
# [1] = biological target: Fuc(a1-3)[Gal(b1-4)]Glc6S
# Summary of the method: as §1
# [2] = biological target: Fuc(a1-3)[Gal(b1-4)]GlcNAc
# Summary of the method: as §1
# [3] = biological target: Fuc(a1-3)[Gal(b1-4)]GlcNAc(b1-2)Man
# Summary of the method: as §1
# [4] = biological target: Fuc(a1-3)[Gal(b1-4)]GlcNAc(b1-2)Man(a1-3)[Fuc(a1-3)[Gal(b1-4)]GlcNAc(b1-2)Man(a1-6)]Man(b1-4)GlcNAc(b1-4)GlcNAc
# Summary of the method: as §1
# [5] = biological target: Fuc(a1-3)[Gal(b1-4)]GlcNAc(b1-2)Man(a1-3)[Fuc(a1-3)[Gal(b1-4)]GlcNAc(b1-2)Man(a1-6)]Man(b1-4)GlcNAc(b1-4)[Fuc(a1-6)]GlcNAc
# Summary of the method: as §1
# [6] = biological target: Fuc(a1-3)[Gal(b1-4)]GlcNAc(b1-3)Gal(b1-3)[Fuc(a1-4)]GlcNAc
# Summary of the method: as §1
# [7] = biological target: Fuc(a1-3)[Gal(b1-4)]GlcNAc(b1-3)Gal(b1-4)[Fuc(a1-3)]GlcNAc
# Summary of the method: as §1
# [8] = biological target: Fuc(a1-3)[Gal(b1-4)]GlcNAc(b1-3)Gal(b1-4)[Fuc(a1-3)]GlcNAc(b1-3)Gal(b1-4)[Fuc(a1-3)]GlcNAc
# Summary of the method: as §1
# [9] = biological target: Fuc(a1-3)[Gal(b1-4)]GlcNAc(b1-3)GalNAc
# Summary of the method: as §1
# [10] = biological target: Fuc(a1-3)[Gal(b1-4)]GlcNAc(b1-6)GalNAc
# Summary of the method: as §1
# [11] = biological target: Fuc(a1-3)[Gal(b1-4)]GlcNAc(b1-6)[Gal(b1-3)GlcNAc(b1-3)]Gal(b1-4)Glc
# Summary of the method: as §1
# [12] = biological target: Fuc(a1-3)[Gal(b1-4)]GlcNAc6S
# Summary of the method: as §1
# [13] = biological target: Fuc(a1-3)[Gal3S(b1-4)]Glc
# Summary of the method: as §1
# [14] = biological target: Fuc(a1-3)[Gal3S(b1-4)]GlcNAc
# Summary of the method: as §1
# [15] = biological target: Fuc(a1-3)[Gal3S(b1-4)]GlcNAc6S
# Summary of the method: as §1
# [16] = biological target: Fuc(a1-3)[GalNAc(b1-4)]GlcNAc
# Summary of the method: as §1
# [17] = biological target: Fuc(a1-3)[GalNAc(b1-4)]GlcNAc6S
# Summary of the method: as §1
# Fuc(a1-4)GlcNAc = biological target: Fuc(a1-4)GlcNAc
# Summary of the method: as §1
# Fuc(b1-3)GlcNAc = biological target: Fuc(b1-3)GlcNAc
# Summary of the method: as §1
# Gal(a1-2)Gal = biological target: Gal(a1-2)Gal
# Summary of the method: as §1
# Gal(a1-3)Gal = biological target: Gal(a1-3)Gal
# Summary of the method: as §1
# Gal(a1-3)Gal(b1-3)GlcNAc = biological target: Gal(a1-3)Gal(b1-3)GlcNAc
# Summary of the method: as §1
# [18] = biological target: Gal(a1-3)Gal(b1-3)GlcNAc(b1-2)Man
# Summary of the method: as §1
# [19] = biological target: Gal(a1-3)Gal(b1-3)GlcNAc(b1-2)Man(a1-3)[Gal(a1-3)Gal(b1-3)GlcNAc(b1-2)Man(a1-6)]Man(b1-4)GlcNAc(b1-4)GlcNAc
# Summary of the method: as §1
# [20] = biological target: Gal(a1-3)Gal(b1-3)GlcNAc(b1-3)GalNAc
# Summary of the method: as §1
# [21] = biological target: Gal(a1-3)Gal(b1-3)GlcNAc(b1-6)GalNAc
# Summary of the method: as §1
# [22] = biological target: Gal(a1-3)Gal(b1-3)[Fuc(a1-4)]GlcNAc(b1-2)Man(a1-3)[Gal(a1-3)Gal(b1-3)[Fuc(a1-4)]GlcNAc(b1-2)Man(a1-6)]Man(b1-4)GlcNAc(b1-4)GlcNAc
# Summary of the method: as §1
# Gal(a1-3)Gal(b1-4)Glc = biological target: Gal(a1-3)Gal(b1-4)Glc
# Summary of the method: as §1
# Gal(a1-3)Gal(b1-4)GlcNAc = biological target: Gal(a1-3)Gal(b1-4)GlcNAc
# Summary of the method: as §1
# [23] = biological target: Gal(a1-3)Gal(b1-4)GlcNAc(b1-2)Man
# Summary of the method: as §1
# [24] = biological target: Gal(a1-3)Gal(b1-4)GlcNAc(b1-2)Man(a1-3)[Gal(a1-3)Gal(b1-4)GlcNAc(b1-2)Man(a1-6)]Man(b1-4)GlcNAc(b1-4)GlcNAc
# Summary of the method: as §1
# [25] = biological target: Gal(a1-3)Gal(b1-4)GlcNAc(b1-3)GalNAc
# Summary of the method: as §1
# [26] = biological target: Gal(a1-3)Gal(b1-4)GlcNAc(b1-6)GalNAc
# Summary of the method: as §1
# [27] = biological target: Gal(a1-3)Gal(b1-4)[Fuc(a1-3)]GlcNAc
# Summary of the method: as §1
# [28] = biological target: Gal(a1-3)Gal(b1-4)[Fuc(a1-3)]GlcNAc(b1-2)Man(a1-3)[Gal(a1-3)Gal(b1-4)[Fuc(a1-3)]GlcNAc(b1-2)Man(a1-6)]Man(b1-4)GlcNAc(b1-4)GlcNAc
# Summary of the method: as §1
# Gal(a1-3)GalNAc = biological target: Gal(a1-3)GalNAc
# Summary of the method: as §1
# [29] = biological target: Gal(a1-3)[Gal(a1-4)]Gal(b1-4)GlcNAc
# Summary of the method: as §1
# [30] = biological target: Gal(a1-4)Gal(b1-3)GlcNAc(b1-2)Man(a1-3)[Gal(a1-4)Gal(b1-3)GlcNAc(b1-2)Man(a1-6)]Man(b1-4)GlcNAc(b1-4)GlcNAc
# Summary of the method: as §1
# Gal(a1-4)Gal(b1-4)Glc = biological target: Gal(a1-4)Gal(b1-4)Glc
# Summary of the method: as §1
# Gal(a1-4)Gal(b1-4)GlcNAc = biological target: Gal(a1-4)Gal(b1-4)GlcNAc
# Summary of the method: as §1
# [31] = biological target: Gal(a1-4)Gal(b1-4)GlcNAc(b1-2)Man(a1-3)[Gal(a1-4)Gal(b1-4)GlcNAc(b1-2)Man(a1-6)]Man(b1-4)GlcNAc(b1-4)GlcNAc
# Summary of the method: as §1
# [32] = biological target: Gal(a1-4)Gal(b1-4)GlcNAc(b1-3)Gal(b1-4)Glc
# Summary of the method: as §1
# Gal(a1-4)GlcNAc = biological target: Gal(a1-4)GlcNAc
# Summary of the method: as §1
# Gal(a1-6)Glc = biological target: Gal(a1-6)Glc
# Summary of the method: as §1
binder,measurement,setting,value
B1,glycan array binding signal (z-score),Fuc(a1-3)GlcNAc,0.615
same,glycan array binding signal (z-score),[1],-0.344
same,glycan array binding signal (z-score),[2],0.393
same,glycan array binding signal (z-score),[3],0.5
same,glycan array binding signal (z-score),[4],-0.131
same,glycan array binding signal (z-score),[5],-0.632
same,glycan array binding signal (z-score),[6],0.249
same,glycan array binding signal (z-score),[7],0.796
same,glycan array binding signal (z-score),[8],-0.942
same,glycan array binding signal (z-score),[9],-1.2
same,glycan array binding signal (z-score),[10],-0.084
same,glycan array binding signal (z-score),[11],-0.768
same,glycan array binding signal (z-score),[12],2
same,glycan array binding signal (z-score),[13],-1.11
same,glycan array binding signal (z-score),[14],-0.591
same,glycan array binding signal (z-score),[15],0.123
same,glycan array binding signal (z-score),[16],-1.22
same,glycan array binding signal (z-score),[17],-0.844
same,glycan array binding signal (z-score),Fuc(a1-4)GlcNAc,-0.393
same,glycan array binding signal (z-score),Fuc(b1-3)GlcNAc,0.03
same,glycan array binding signal (z-score),Gal(a1-2)Gal,-0.693
same,glycan array binding signal (z-score),Gal(a1-3)Gal,-1.65
same,glycan array binding signal (z-score),Gal(a1-3)Gal(b1-3)GlcNAc,-1.1
same,glycan array binding signal (z-score),[18],0.273
same,glycan array binding signal (z-score),[19],-0.827
same,glycan array binding signal (z-score),[20],0.883
same,glycan array binding signal (z-score),[21],-0.303
same,glycan array binding signal (z-score),[22],2.07
same,glycan array binding signal (z-score),Gal(a1-3)Gal(b1-4)Glc,0.542
same,glycan array binding signal (z-score),Gal(a1-3)Gal(b1-4)GlcNAc,0.619
same,glycan array binding signal (z-score),[23],1.01
same,glycan array binding signal (z-score),[24],1.26
same,glycan array binding signal (z-score),[25],-1.13
same,glycan array binding signal (z-score),[26],-0.61
same,glycan array binding signal (z-score),[27],0.279
same,glycan array binding signal (z-score),[28],0.257
same,glycan array binding signal (z-score),Gal(a1-3)GalNAc,-0.371
same,glycan array binding signal (z-score),[29],-0.747
same,glycan array binding signal (z-score),[30],1.33
same,glycan array binding signal (z-score),Gal(a1-4)Gal(b1-4)Glc,-0.91
same,glycan array binding signal (z-score),Gal(a1-4)Gal(b1-4)GlcNAc,0.09
same,glycan array binding signal (z-score),[31],-0.501
same,glycan array binding signal (z-score),[32],-0.534
same,glycan array binding signal (z-score),Gal(a1-4)GlcNAc,-1.38
same,glycan array binding signal (z-score),Gal(a1-6)Glc,-0.016

# Reprinted from the results shown (two entries):
binder,measurement,setting,value
B1,glycan array binding signal (z-score),[13],-1.11
same,glycan array binding signal (z-score),[14],-0.591
